In this test the target is MCM2 (endogenous, 293T) (human (endogenous in 293T)) (UniProt P49736). Briefly: co-IP; anti-MCM2 antibody and protein A/G beads, lysate of wild-type or MCM2-2A mutant 293T cells, 200 mM NaCl, 0.5% NP-40; IgG as negative control.

Chains of the proteins cited; added tags and fusions are not shown.
UniProt P49736: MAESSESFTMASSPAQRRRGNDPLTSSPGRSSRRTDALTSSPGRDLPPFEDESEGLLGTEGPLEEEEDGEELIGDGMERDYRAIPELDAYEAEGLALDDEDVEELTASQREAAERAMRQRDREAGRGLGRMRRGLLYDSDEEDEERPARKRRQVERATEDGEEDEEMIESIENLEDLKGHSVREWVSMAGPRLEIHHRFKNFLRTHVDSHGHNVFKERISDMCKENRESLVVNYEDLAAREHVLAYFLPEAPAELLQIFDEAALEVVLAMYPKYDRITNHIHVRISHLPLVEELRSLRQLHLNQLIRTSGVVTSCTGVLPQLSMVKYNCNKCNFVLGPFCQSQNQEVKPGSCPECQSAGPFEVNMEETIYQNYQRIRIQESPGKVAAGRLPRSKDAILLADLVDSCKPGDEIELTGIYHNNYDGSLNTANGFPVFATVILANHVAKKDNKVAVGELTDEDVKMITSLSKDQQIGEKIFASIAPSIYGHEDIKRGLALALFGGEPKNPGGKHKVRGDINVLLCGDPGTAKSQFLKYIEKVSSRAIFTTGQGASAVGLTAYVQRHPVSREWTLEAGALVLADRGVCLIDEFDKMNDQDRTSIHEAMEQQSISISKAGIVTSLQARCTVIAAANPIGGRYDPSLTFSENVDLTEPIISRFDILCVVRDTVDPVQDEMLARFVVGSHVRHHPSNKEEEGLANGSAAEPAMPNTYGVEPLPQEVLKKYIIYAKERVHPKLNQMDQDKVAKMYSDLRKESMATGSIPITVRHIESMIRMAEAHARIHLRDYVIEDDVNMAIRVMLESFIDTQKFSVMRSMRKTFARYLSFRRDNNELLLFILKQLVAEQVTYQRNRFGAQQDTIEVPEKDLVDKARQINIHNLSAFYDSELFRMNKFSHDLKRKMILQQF

No constants are given. Whether binding was seen depends on the method and setting. In cells and extracts the contact can be indirect. Some results given as binding are weak or reduced against the parent protein; the word gives no strength.

B1: POLD3 (endogenous, 293T) (protein, UniProt Q15054 1-466)
chain: MADQLYLENIDEFVTDQNKIVTYKWLSYTLGVHVNQAKQMLYDYVERKRKENSGAQLHVTYLVSGSLIQNGHSCHKVAVVREDKLEAVKSKLAVTASIHVYSIQKAMLKDSGPLFNTDYDILKSNLQNCSKFSAIQCAAAVPRAPAESSSSSKKFEQSHLHMSSETQANNELTTNGHGPPASKQVSQQPKGIMGMFASKAAAKTQETNKETKTEAKEVTNASAAGNKAPGKGNMMSNFFGKAAMNKFKVNLDSEQAVKEEKIVEQPTVSVTEPKLATPAGLKKSSKKAEPVKVLQKEKKRGKRVALSDDETKETENMRKKRRRIKLPESDSSEDEVFPDSPGAYEAESPSPPPPPSPPLEPVPKTEPEPPSVKSSSGENKRKRKRVLKSKTYLDGEGCIVTEKVYESESCTDSEEELNMKTSSVHRPPAMTVKKEPREERKGPKKGTAALGKANRQVSITGFFQRK
B1: the binding result was “binds”.

These data come from paper PMC13156308.
